Assay results as given in PubChem BioAssay AID1347426 (Functional Genomics Laboratory (NCATS/FGL), 2020).
Out of some 31,000 sequences screened, about 1,400 (4.5%) were called active.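 How the source made its calls: active means median seed-adjusted z-score above 1 or below -1; inactive means the rest.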 Some of the results follow.

Assay: Novel Modifiers of Survival Motor Neuron (SMN) Protein: Gene Identification via Genome-wide siRNA Screen;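 further: luminescence tracks full-length SMN protein made from the SMN2 reporter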
Settings: HEK293T SMN2-luciferase reporter, siRNA knockdown, 72 h; actives lie on both sides
Outline: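 Genome-wide siRNA screen (10418 genes, 3 siRNAs each, 1 pmol per well) by reverse transfection in HEK293T cells stably carrying an SMN2-luciferase reporter; luminescence after 72 hours, normalized to negative-control siRNA, log10-transformed, MAD-scored.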

Sequence | median seed-adjusted z-score
GCAACGUUCUGGUGCGGAATT against ADCK5 | inactive: 0.958
GGCUCAGAGUACAAGUACATT against FTSJ1 | inactive: 0.0774
GCUUUGAGGAAAAUCCGAATT against SLC26A3 | inactive: -0.506
CAACCUCUCUUUGAACCGUTT against FOXK1 | inactive: 0.63
CGUCGAAUUCCAAUCUUAUTT against ARL6 | inactive: 0.442
UAAUUGACCUGACCAGUUUTT against SLC30A8 | inactive: -0.767
GAGAUUCAUCGGUUCAAUATT against WRNIP1 | inactive: 0.00972
GCAUCUUUCUAGACCAUAUTT against TTBK2 | inactive: 0.423
GGAAUUCCGUAAAAGCAUUTT against HOXC13 | inactive: -0.318
GGUGGAACAUCAUAUCAAATT against DDX50 | inactive: 0.359
GGAAGCUCACUUUAUGCUATT against PCDHGA10 | inactive: 0.0621
GAAUGCAGGUUGCAAAUAUTT against SPG7 | inactive: -0.293
GGUCAACGGCGAACUCAGATT against FAHD1 | inactive: -0.157
CGGUACUACUAGUGAACUATT against APEH | inactive: -0.0726
GACAUCCAGUUGUGAAUUUTT against GNL1 | inactive: 0.154
GAUUGGAAGUCGUCAACAATT against AFG3L2 | inactive: 0.117
UGUCUGUUAUGAUGCGUUUTT against GJC1 | inactive: -0.0291
GCACAAACACUAUUAAAUUTT against PPAPDC1A | inactive: 0.634
CCAUUGAAGAGGCUAUGAATT against SPAG7 | inactive: 0.263
GGCUAUUAUUUGACUUGUUTT against CCL13 | inactive: 0.135
CGAUGACCCUGACAGAUGUTT against NOD1 | inactive: 0.092
CCCUAGUGAUGAUCUCGGATT against TRPV2 | inactive: -0.227
CACCAGUGGUCUACACUAUTT against LRGUK | inactive: 0.166
GAGAUACUCCUGAGAAUAATT against NDUFV2 | inactive: -0.794
CGGAAAGAAAGGUACCCGATT against BRSK2 | inactive: -0.12
AGCUUUACCUGUUCCACGATT against MRPS17 | inactive: -0.313
CAACGUGACUGUGAAGGCATT against ITGA3 | inactive: 0

Sequence | median seed-adjusted z-score
CCUCCAUGUCCAACCCAUATT against FOSL2 | inactive: -0.372
CCAGGAAACGAAAACCUAATT against GATA6 | inactive: 0.546
CAGCUGUUGUUGAGCGAAUTT against CASP2 | inactive: 0.421
CACGUGGAGUAUUACACUATT against B4GALNT2 | inactive: -0.174
GGACUUGUCAAAUACCAGUTT against SGOL2 | inactive: 0.114
GGCAUGUCGGUUACAAGAATT against RRBP1 | inactive: -0.254
GUCCACAACUUGUAAGGCATT against SATB2 | inactive: -0.389
AGAUCAUGUUGCUCAAAAUTT against CNIH4 | inactive: -0.0718
GGAUUCUUGUUGGACUAAUTT against RHBDD1 | inactive: 0.00277
AUAUCGAAUUGUUUCGCAATT against HTRA1 | inactive: 0.031
CAUUGAACCUUGUAAUUCUTT against LIG4 | inactive: 0.576
CACCAACCGCUGGUCCUUUTT against RAB40C | inactive: -0.161
GGAUUUGACCGACUGAUAUTT against SNRNP40 | inactive: 0.677
CCAGCUUAAUGGACAUCUATT against ARSH | inactive: -0.0414
CCUAAGUGCUUGCACCCUATT against HOXA7 | inactive: -0.129
GGGACCGAGAGAUCAGAUATT against PPAP2C | active: -1.12
CCCUGGUUCUGGCUACUGUTT against DLK2 | inactive: -0.695
GGCUCACACUGAGAAUGUATT against CALR | inactive: -0.795
GGAAGGCCCUGUGAAGAAATT against PNPO | inactive: -0.0845
GUAUUAAGCUCAUCAUGGATT against JAK1 | inactive: 0.0199
AGCUAUUGGUGGGCCGUCATT against KCNG2 | inactive: 0
CAUCCAGUCUGACGACAAATT against UQCRC2 | inactive: -0.848
AGACCAUUGUGACAGCUGUTT against SLC6A7 | inactive: 0.00508
GGAGUAACAGUACAUCUAUTT against PHC3 | inactive: -0.204
GUAUUUCCCGUGACUCGUATT against TAF5 | inactive: -0.192
ACCUGAGUGUGAACCUCUATT against GDPD5 | inactive: -0.0618
GAAUGUACAGUGAUCGGAATT against UTRN | inactive: 0.909

A stretch of the results above, for reference:
Sequence | median seed-adjusted z-score
CAUUGAACCUUGUAAUUCUTT against LIG4 | inactive: 0.576
CACCAACCGCUGGUCCUUUTT against RAB40C | inactive: -0.161
